For some assays here: The same purity stands for every peptide and may come from a single statement. *: point of attachment. Myristoyl = CCCCCCCCCCCCCC(=O)*
Assay: ITC dimer-monomer dissociation
Assay type: binding
Conditions: no ligand, 25 °C, 0.1 M NaOAc, pH 5.0

Compound | TΔSdim | ΔGdim | ΔHdim
CN[C@H](CC(C)C)C(=O)N[C@H]1C(=O)N[C@@H](CC(N)=O)C(=O)N[C@H]2C(=O)N[C@H]3C(=O)N[C@H](C(=O)N[C@H](C(=O)O)c4cc(O)cc(O)c4-c4cc3ccc4O)[C@H](O)c3ccc(c(Cl)c3)Oc3cc2cc(c3O[C@@H]2O[C@H](CO)[C@@H](O)[C@H](O)[C@H]2O[C@H]2C[C@](C)(N)[C@H](O)[C@H](C)O2)Oc2ccc(cc2Cl)[C@H]1O [Compound 1, Vancomycin] | 1.17 ± 0.17 kcal/mol | -3.92 ± 0.072 kcal/mol | -2.75 ± 0.12 kcal/mol

Same assay, conditions: no ligand, 25 °C, 0.1 M NaOAc, pH 5.0, ITC

Compound | Kdim
CN[C@H](CC(C)C)C(=O)N[C@H]1C(=O)N[C@@H](CC(N)=O)C(=O)N[C@H]2C(=O)N[C@H]3C(=O)N[C@H](C(=O)N[C@H](C(=O)O)c4cc(O)cc(O)c4-c4cc3ccc4O)[C@H](O)c3ccc(c(Cl)c3)Oc3cc2cc(c3O[C@@H]2O[C@H](CO)[C@@H](O)[C@H](O)[C@H]2O[C@H]2C[C@](C)(N)[C@H](O)[C@H](C)O2)Oc2ccc(cc2Cl)[C@H]1O [Compound 1, Vancomycin] | 750 ± 80 M⁻¹

Assay: general procedure: Fmoc solid-phase peptide synthesis; Fmoc-Rink Amide AM polystyrene resin; HypoGel HMBA resin; Fmoc-Cys(Trt) or Fmoc-Lys(Boc) Wang polystyrene resin; HBTU/DIPEA
Conditions: conjugation step, analytical LC/MS using RP-HPLC (Eclipse XDB-Phenyl column)

Compound | final HPLC purity
POB2K-K-Orn-K(Vancomycin)-NHMe | > 95%
POB2K-Dab-K-K(Vancomycin)-NHMe | > 95%
POB2K-KK-Orn(Vancomycin)-NHMe | > 95%
nC15CO-GSSKSPSKKKKKKPGDC(SCH 2 CH 2 NH-Vancomycin)-NH 2 | > 95%
nC13CO-GSKKK-K(Vancomycin)-OH | > 95%
nC13CO-GSKKKC(SCH 2 CH 2 NH-Vancomycin)-NH 2 | > 95%
nC13CO-GSSKSPSKKKKKKPGDC(SCH 2 CH 2 NH-Vancomycin)-NH 2 | > 95%
nC13CO-GSSKSPSKKKPC(SCH 2 CH 2 NH-Vancomycin)-NH 2 | > 95%
4-Ph-Bz-GSSKSPSKKKKKKPGDC(SCH 2 CH 2 NH-Vancomycin)-NH 2 | > 95%
POB2K-K-Dap-K(Vancomycin)-NHMe | > 95%
nC13CO-GSKKKC(SCH 2 CH 2 NH-Vancomycin)-OH | > 95%
POB2K-Dap-Dap-K(Vancomycin)-NHMe | > 95%
POB2K-Dap-K-K(Vancomycin)-NHMe | > 95%
nC9CO-GSSKSPSKKKKKKPGDC(SCH2CH2NH-Vancomycin)-NH2 | > 95%
nC11CO-GSSKSPSKKKKKKPGDC(SCH 2 CH 2 NH-Vancomycin)-NH 2 | > 95%
nC13CO-GSSKSPSKKKPGDC(SCH 2 CH 2 NH-Vancomycin)-NH 2 | > 95%
POB2K-K-Dab-K(Vancomycin)-NHMe | > 95%
nC10CO-GSKKK-K-(Vancomycin)-OH | > 95%
POB2K-Orn-K-K(Vancomycin)-NHMe | > 95%
POB2K-Orn-Orn-K(Vancomycin)-NHMe | > 95%

Same assay, conditions: whole synthesis, analytical LC/MS using RP-HPLC (Eclipse XDB-Phenyl column)

Compound | final HPLC purity
Myristoyl-KKKC-OH – disulphide dimer | > 95%
Myristoyl-GSSKSPSKKKPC-NH2 | > 95%
Myristoyl-GSKKKC-NH2 | > 95%
Myristoyl-GSSKSPSKKKKKKPGDC-NH2 | > 95%
Myristoyl-GSKKKC-OH | > 95%
